Laboratory results published in patent US8071548B2, “Method of reducing injury to mammalian cells” (Nono, Inc., priority 2002, dated 2011).
At least one peptide structure holds a part that was inferred or is arguable (an end, a ring closure or a residue). No end group written: not given here.

Chains of the proteins cited; added tags and fusions are not shown.
UniProt P31016, whole entry: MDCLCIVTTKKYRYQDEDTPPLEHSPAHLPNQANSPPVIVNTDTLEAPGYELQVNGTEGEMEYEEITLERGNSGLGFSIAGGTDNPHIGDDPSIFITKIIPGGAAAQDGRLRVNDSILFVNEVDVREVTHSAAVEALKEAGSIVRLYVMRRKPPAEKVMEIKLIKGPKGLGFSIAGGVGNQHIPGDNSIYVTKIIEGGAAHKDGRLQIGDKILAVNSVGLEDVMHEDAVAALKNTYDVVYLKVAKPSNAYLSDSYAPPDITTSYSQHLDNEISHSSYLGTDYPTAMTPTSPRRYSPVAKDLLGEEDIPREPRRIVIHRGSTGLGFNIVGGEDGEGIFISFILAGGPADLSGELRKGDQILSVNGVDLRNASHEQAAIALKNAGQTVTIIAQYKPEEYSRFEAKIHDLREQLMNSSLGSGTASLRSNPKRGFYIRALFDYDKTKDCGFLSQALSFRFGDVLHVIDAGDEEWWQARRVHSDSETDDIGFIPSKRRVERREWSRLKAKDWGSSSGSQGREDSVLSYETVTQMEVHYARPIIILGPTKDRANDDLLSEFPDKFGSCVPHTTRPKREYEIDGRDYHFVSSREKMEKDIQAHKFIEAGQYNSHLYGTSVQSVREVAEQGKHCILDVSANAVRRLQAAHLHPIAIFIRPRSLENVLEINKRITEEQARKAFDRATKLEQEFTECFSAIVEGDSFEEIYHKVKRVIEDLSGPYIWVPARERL

Key:
[1] = target: NMDAR/PSD-95 interaction (Rattus norvegicus, UniProt P31016); assay type: binding; details: as compared with controls
[2] = system: cortical neuronal cultures; assay: Sublethal stretch injury with or without NMDA, cell death in cortical cultures; assay type: cell-based
Protocol: […]. In brief, cerebral cortices from 10 to 12 embryos were incubated for 10 min in 0.05% trypsin-EDTA, dissociated by trituration, and plated on flexible membranes coated with poly-L-ornithine in 6 well plates (Flexcell International Corporation, Hillsborough, N.C.) at a density of 3.25×10^6 cells per well. Plating medium consisted of DMEM supplemented with 10% heat-inactivated horse serum (Gibco) and (in mM) 2 glutamine, 25 glucose, and 26 bicarbonate. The cultures were maintained at 37° C. in a humidified 5% CO2 atmosphere. After 3 days in vitro, growth of non-neuronal cells was halted by a 48 h exposure to 10 μM FDU-solution (5 μM uridine, 5 μM (+)-5-fluor-2′-deoxyuridine). […]
Cell death was determined by serial quantitative measurements of propidium iodide (PI) fluorescence using a multiwell plate fluorescence scanner (Cytofluor II, PerSeptive Biosytems, Framingham, Mass., USA) as described previously (Sattler et al., 1997; Sattler et al., 1998). In brief, the culture medium in each tissue culture well was replaced with control solution containing 50 μg/ml PI, and a baseline fluorescence reading was taken. Sequential readings were then taken at appropriate intervals over the 20 h observation period. […]
All experiments were performed at 37° C. […] They were then washed ×1 with control solution and then with control solution containing 50 μg/ml PI to obtain a baseline reading. […]

[3] = system: transient middle cerebral artery occlusion; assay: Transient MCAO, pre-treatment study; assay type: in vivo, Sprague-Dawley rats; details: 3 nMoles/g i.v. 45 min prior to MCAO, 24 h after MCAO onset
Protocol: Next, I examined whether pretreatment with Tat-peptides would reduce stroke damage. Experiments were carried out in adult male Sprague-Dawley rats subjected to transient middle cerebral artery occlusion (MCAO) for 90 minutes by the intraluminal suture method (36,37). Animals were fasted overnight and injected with atropine sulfate (0.5 mg/kg IP). After 10 minutes anesthesia was induced with 3.5% halothane in a mixture of nitrous oxide and oxygen (Vol. 2:1) and maintained with 0.8% halothane. Rats were orally intubated, mechanically ventilated, and paralyzed with pancuronium bromide (0.6 mg/kg IV). Body temperature was maintained at 36.5-37.5° C. with a heating lamp. Polyethylene catheters in the femoral artery and vein were used to continuously record blood pressure and to sample blood for gas and pH measurements. […] This produces an extensive infarction encompassing the cerebral cortex and basal ganglia. […] Physiological parameters (body temperature, blood pressure, blood gases) were monitored and maintained throughout the experiment (Table 1). All experimental manipulations and analyses of data were performed by individuals blinded to the treatment groups. The extent of cerebral infarction was measured 24 h after MCAO onset (FIG. 7C inset). […]

[4] = system: nNOS; assay: NMDA-evoked cGMP formation (surrogate of NO production by nNOS); assay type: cell-based, mouse; details: 50 nM, pre-treated 1 h, NMDA 0-1000 μM
Protocol: cGMP determinations were performed 10 min after challenging the cultures with NMDA, kainate, or high-K (FIGS. 4c-e) with the Biotrak cGMP enzyme immunoassay system according to the kit manufacturer's instructions (Amersham). Staining for NADPH diaphorase (FIG. 4b) was done as described in ref 12.

[5] = system: transient middle cerebral artery occlusion; assay: Transient MCAO, post-treatment study (1 h after MCAO onset); assay type: in vivo, Sprague-Dawley rats; details: 3 nMole/g i.v. 1 h after MCAO onset
Protocol: Next, I examined whether pretreatment with Tat-peptides would reduce stroke damage. Experiments were carried out in adult male Sprague-Dawley rats subjected to transient middle cerebral artery occlusion (MCAO) for 90 minutes by the intraluminal suture method (36,37). Animals were fasted overnight and injected with atropine sulfate (0.5 mg/kg IP). After 10 minutes anesthesia was induced with 3.5% halothane in a mixture of nitrous oxide and oxygen (Vol. 2:1) and maintained with 0.8% halothane. Rats were orally intubated, mechanically ventilated, and paralyzed with pancuronium bromide (0.6 mg/kg IV). Body temperature was maintained at 36.5-37.5° C. with a heating lamp. Polyethylene catheters in the femoral artery and vein were used to continuously record blood pressure and to sample blood for gas and pH measurements. […] This produces an extensive infarction encompassing the cerebral cortex and basal ganglia. […] Physiological parameters (body temperature, blood pressure, blood gases) were monitored and maintained throughout the experiment (Table 1). All experimental manipulations and analyses of data were performed by individuals blinded to the treatment groups. The extent of cerebral infarction was measured 24 h after MCAO onset (FIG. 7C inset). The postural reflex test (38), and the forelimb placing test (39) were used to grade neurological function on a scale of 0 to 12 (normal=0; worst=12) during MCAO (at 50 minutes) and 24 h thereafter.
Next, I examined whether treatment with Tat-NR2B9c could attenuate ischemic neuronal damage in-vivo when given after stroke onset. […] Infarction volume and neurological outcome measurements were performed at times identical to the pre-treatment study. Body temperature, blood pressure and blood gases were monitored throughout the 24 h experiment and maintained equivalent between groups (Table 2).

[6] = system: cultured cortical neurons; assay: NMDA excitotoxicity in cultured cortical neurons (propidium iodide fluorescence); assay type: cell-based, mouse; details: 50 nM for 1 h, then NMDA 0-100 μM 1 h, 20 h observation
[7] = system: transient unilateral middle cerebral artery occlusion; details: post-surgery days 5, 9 and 14

YGRKKRRQRRRKLSSIEADA [Tat-NR2B-AA, reference compound]
reduction of co-immunoprecipitation of PSD-95 with NR2B (optical density signal) [1]: none of the three control peptides reduced
heightened vulnerability of stretched cultures to NMDA toxicity, pre-treatment ([2]; 50 nM 30 min prior to stretch, NMDA 30 μM 1 h, cell death at 20 h): not seen
enhanced cell mortality in stretched neurons by NMDA challenge, post-treatment ([2]; 50 nM applied after terminating the 1 h NMDA challenge): but not Tat-NR2B-AA
reduction in cortical infarction [3]: but not mutated Tat-NR2B-AA
reduction of volume of total cerebral infarction ([3]; vs controls): but not mutated Tat-NR2B-AA
suppression of NMDA-evoked increase in cGMP (average) [4]: unaffected
24 h neurological scores [5]: but not with Tat-NR2B-AA
reduction in cortical infarction volume ([5]; 24 h): but not mutated Tat-NR2B-AA
reduction of volume of total cerebral infarction ([5]; 24 h, vs controls): but not mutated Tat-NR2B-AA
NMDA-evoked cell death, pre-treatment [6]: had no effect
number of paw slips in horizontal ladder task [7]: not different than saline
